Assay results reported in patent publication US20140255415A1 (Novartis, published 2014).

How the values were obtained:
[1] = biological target: human LINGO-2 expressed on CHO-K1 cells (CHO-K1-hLINGO-2) (human); assay: FACS saturation binding on CHO-K1-hLINGO-2 cells, Fab format
[2] = biological target: cynomolgus monkey LINGO-1 expressed on CHO-K1 cells (CHO-K1-cmLINGO-1) (cynomolgus monkey); assay: FACS saturation binding on transfected CHO-K1 cells, Fab format
[3] = biological target: human LINGO-2 expressed on CHO-K1 cells (CHO-K1-hLINGO-2) (human); assay: FACS saturation binding on CHO-K1-hLINGO-2 cells, IgG4 format
[4] = biological target: cynomolgus monkey LINGO-1 expressed on CHO-K1 cells (CHO-K1-cmLINGO-1) (cynomolgus monkey); assay: FACS saturation binding on transfected CHO-K1 cells, IgG4 format

Row | Binder | binding [1] | binding [2] | binding [3] | binding [4]
1 | anti-LINGO-1 Fab 4785 (Fab, V domains shown) VH: QVQLQQSGPGLVKPSQTLSLTCAISGDSVSDNSAAWSWIRQSPGRGLEWLGLIYLRSKWDNDYAVSVKSRITINPDTSKNQFSLQLNSVTPEDTAVYYCARTGRADEFDVWGQGTLVTVSS VL: DIVLTQPPSVSGAPGQRVTISCSGSSSNIGNNYVSWYQQLPGTAPKLLISRNSKRPSGVPDRFSGSKSGTSASLAITGLQSEDEADYYCSTYDTFSIVFGGGTKLTVLG | binds | binds | – | –
2 | anti-LINGO-1 IgG4 antibody 4785 (antibody, V domains shown) VH: QVQLQQSGPGLVKPSQTLSLTCAISGDSVSDNSAAWSWIRQSPGRGLEWLGLIYLRSKWDNDYAVSVKSRITINPDTSKNQFSLQLNSVTPEDTAVYYCARTGRADEFDVWGQGTLVTVSS VL: DIVLTQPPSVSGAPGQRVTISCSGSSSNIGNNYVSWYQQLPGTAPKLLISRNSKRPSGVPDRFSGSKSGTSASLAITGLQSEDEADYYCSTYDTFSIVFGGGTKLTVLG | – | – | binds | binds

Results are given in words; binding and its absence hold for the method and conditions named. A result given as binding can be weak or reduced; the word gives no strength.
